Measured values as given in article PMC7800377.
These are yes or no findings as the source states them, for the method shown. Some binding calls cover weakened binding; strength is not graded here. Sequences can lack the tags named with a protein.

By UniProt entry, the sequences of proteins in these tests, tags left out. Residues count along the entry.
UniProt Q9UH99, residues 522-717: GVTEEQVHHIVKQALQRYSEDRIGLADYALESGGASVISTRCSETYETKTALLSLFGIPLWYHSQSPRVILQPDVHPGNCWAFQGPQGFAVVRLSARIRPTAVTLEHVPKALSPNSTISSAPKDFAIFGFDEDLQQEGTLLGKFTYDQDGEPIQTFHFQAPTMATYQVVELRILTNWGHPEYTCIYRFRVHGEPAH

Target: GCN4-SUN2 (His6-GCN4 fusion of the SUN domain of human SUN2, residues 522–717), wild-type (human) (UniProt Q9UH99)
Assay: SEC; GCN4-SUN and MBP-KASH co-expressed, purified by amylose affinity and ion exchange, whole elution pooled and run on analytical gel filtration (Superdex 200 Increase 10/300 GL) in 20 mM Tris pH 8.0, 150 mM KCl, 2 mM DTT; fractions by SDS-PAGE; both purified

Binder: ASGGPCCSHARIPRTPYLVLSYVNGLPPV (domain or fragment, UniProt Q8N205 376-404) [MBP-KASH4 (His6-MBP fusion of the KASH domain of human Nesprin-4, residues 376–404)]
- binding: binds

Binder: GPSPPPTWPHLQLCYLQPPPV (domain or fragment, UniProt Q8N6L0 542-562) [MBP-KASH5 (His6-MBP fusion of the KASH domain of human KASH5, residues 542–562)]
- binding: binds
